Reference: patent publication US10161932B2, “Azetidine-substituted fluorescent compounds” (HOWARD HUGHES MEDICAL INSTITUTE, priority 2014, dated 2018)
For at least one compound, name, drawing or mass did not settle the structure.

Experiments:
[1] = Fluorescence lifetime measurement; conditions: measured using this system
[2] = Magde et al. 1999; cited from earlier work

O=C1OC2(c3ccc(O)cc3Oc3cc(O)ccc32)c2ccccc21 [fluorescein]
Lifetime value of the reference dye [1]: 4.025±0.015 ns
Lifetime value of the reference dye, literature value [2]: 4.1±0.1 ns
